# Test results as given in the supplement of paper PMC10849652.
# Sequences of proteins named here, by UniProt entry; tags and fusion partners are left off. A change or cut given only in a name is not applied to a line headed by its entry.
# UniProt Q9NRP0: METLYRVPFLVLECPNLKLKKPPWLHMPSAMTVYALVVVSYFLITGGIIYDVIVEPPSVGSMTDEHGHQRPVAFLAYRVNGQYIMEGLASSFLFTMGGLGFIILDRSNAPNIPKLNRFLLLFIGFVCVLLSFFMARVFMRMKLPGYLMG
# UniProt O43809, whole entry, looked up: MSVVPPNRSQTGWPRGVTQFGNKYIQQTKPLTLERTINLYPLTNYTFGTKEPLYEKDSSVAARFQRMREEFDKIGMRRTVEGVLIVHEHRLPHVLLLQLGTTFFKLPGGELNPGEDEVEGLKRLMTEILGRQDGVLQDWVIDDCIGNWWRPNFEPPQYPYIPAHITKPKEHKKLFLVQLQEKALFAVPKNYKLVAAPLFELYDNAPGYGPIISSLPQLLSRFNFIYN
# UniProt Q13416: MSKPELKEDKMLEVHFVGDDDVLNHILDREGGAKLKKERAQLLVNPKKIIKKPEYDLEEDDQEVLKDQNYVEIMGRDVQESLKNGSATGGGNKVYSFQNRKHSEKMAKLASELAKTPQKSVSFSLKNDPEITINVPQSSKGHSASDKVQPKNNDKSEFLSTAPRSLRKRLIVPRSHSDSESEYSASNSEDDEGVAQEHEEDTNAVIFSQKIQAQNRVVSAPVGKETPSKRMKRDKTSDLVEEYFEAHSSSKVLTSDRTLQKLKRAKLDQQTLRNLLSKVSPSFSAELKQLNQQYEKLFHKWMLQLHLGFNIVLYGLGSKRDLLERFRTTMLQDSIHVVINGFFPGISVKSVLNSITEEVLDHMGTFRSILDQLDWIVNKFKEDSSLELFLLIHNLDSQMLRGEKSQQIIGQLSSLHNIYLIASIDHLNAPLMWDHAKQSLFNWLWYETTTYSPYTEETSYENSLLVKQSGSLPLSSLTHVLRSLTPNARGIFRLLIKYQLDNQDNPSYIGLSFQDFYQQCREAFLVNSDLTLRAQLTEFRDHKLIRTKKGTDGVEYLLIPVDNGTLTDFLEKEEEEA
# UniProt Q969T7: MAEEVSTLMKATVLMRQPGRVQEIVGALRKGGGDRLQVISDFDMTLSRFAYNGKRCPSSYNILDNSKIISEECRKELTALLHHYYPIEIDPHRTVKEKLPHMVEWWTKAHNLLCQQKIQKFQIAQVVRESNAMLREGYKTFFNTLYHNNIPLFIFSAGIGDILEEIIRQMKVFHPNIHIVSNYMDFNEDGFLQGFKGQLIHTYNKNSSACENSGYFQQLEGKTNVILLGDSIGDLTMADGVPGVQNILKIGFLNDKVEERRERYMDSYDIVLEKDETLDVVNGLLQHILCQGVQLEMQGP
# UniProt Q92621: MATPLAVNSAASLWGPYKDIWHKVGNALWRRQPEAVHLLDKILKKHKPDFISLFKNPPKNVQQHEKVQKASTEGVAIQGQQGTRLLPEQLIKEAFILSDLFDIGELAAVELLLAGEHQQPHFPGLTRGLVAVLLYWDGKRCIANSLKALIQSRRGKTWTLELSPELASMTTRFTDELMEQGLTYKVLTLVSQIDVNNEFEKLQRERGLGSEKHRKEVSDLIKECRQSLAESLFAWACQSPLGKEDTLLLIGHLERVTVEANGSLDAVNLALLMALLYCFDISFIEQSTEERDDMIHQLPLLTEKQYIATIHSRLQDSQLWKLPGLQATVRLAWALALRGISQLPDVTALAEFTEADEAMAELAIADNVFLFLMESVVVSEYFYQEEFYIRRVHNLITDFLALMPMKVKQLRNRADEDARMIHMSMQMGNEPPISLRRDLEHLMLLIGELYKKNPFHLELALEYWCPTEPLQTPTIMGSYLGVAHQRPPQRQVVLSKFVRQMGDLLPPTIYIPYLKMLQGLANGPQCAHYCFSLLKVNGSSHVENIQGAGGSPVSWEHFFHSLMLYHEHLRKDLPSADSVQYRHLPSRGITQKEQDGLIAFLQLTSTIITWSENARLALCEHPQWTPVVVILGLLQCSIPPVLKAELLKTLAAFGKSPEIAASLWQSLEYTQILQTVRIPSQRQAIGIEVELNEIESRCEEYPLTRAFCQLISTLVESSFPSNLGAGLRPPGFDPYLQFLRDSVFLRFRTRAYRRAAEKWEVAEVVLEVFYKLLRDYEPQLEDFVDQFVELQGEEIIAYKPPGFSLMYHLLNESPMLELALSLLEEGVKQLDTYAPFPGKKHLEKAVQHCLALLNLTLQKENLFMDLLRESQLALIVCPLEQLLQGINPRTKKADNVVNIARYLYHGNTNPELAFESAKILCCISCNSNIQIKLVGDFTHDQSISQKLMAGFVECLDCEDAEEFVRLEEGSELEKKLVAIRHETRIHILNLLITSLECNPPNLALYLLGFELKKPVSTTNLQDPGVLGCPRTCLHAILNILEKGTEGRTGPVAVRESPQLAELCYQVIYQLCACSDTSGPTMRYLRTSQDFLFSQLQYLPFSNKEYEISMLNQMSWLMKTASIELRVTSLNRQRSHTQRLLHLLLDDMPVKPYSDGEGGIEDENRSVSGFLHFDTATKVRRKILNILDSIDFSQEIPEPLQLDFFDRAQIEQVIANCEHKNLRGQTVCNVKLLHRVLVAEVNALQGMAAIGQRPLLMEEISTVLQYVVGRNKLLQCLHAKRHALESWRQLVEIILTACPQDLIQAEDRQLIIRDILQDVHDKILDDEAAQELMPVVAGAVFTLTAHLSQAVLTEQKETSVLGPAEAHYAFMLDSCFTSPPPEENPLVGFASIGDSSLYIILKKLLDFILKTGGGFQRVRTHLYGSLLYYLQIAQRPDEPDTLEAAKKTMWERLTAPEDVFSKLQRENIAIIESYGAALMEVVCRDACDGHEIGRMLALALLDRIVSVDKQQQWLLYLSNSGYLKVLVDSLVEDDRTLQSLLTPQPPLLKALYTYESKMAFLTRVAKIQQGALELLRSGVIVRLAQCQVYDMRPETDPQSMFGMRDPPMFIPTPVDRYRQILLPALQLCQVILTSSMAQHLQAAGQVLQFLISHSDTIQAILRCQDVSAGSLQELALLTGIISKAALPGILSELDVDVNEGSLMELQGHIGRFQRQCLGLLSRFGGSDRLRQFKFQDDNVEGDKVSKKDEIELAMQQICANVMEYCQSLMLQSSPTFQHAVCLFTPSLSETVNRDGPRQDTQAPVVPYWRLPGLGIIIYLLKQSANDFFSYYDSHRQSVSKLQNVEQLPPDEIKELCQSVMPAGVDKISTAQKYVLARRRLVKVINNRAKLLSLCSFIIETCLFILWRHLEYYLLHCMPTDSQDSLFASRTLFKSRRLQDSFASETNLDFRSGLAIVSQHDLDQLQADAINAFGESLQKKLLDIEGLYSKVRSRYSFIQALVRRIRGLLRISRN
# UniProt Q8TEM1: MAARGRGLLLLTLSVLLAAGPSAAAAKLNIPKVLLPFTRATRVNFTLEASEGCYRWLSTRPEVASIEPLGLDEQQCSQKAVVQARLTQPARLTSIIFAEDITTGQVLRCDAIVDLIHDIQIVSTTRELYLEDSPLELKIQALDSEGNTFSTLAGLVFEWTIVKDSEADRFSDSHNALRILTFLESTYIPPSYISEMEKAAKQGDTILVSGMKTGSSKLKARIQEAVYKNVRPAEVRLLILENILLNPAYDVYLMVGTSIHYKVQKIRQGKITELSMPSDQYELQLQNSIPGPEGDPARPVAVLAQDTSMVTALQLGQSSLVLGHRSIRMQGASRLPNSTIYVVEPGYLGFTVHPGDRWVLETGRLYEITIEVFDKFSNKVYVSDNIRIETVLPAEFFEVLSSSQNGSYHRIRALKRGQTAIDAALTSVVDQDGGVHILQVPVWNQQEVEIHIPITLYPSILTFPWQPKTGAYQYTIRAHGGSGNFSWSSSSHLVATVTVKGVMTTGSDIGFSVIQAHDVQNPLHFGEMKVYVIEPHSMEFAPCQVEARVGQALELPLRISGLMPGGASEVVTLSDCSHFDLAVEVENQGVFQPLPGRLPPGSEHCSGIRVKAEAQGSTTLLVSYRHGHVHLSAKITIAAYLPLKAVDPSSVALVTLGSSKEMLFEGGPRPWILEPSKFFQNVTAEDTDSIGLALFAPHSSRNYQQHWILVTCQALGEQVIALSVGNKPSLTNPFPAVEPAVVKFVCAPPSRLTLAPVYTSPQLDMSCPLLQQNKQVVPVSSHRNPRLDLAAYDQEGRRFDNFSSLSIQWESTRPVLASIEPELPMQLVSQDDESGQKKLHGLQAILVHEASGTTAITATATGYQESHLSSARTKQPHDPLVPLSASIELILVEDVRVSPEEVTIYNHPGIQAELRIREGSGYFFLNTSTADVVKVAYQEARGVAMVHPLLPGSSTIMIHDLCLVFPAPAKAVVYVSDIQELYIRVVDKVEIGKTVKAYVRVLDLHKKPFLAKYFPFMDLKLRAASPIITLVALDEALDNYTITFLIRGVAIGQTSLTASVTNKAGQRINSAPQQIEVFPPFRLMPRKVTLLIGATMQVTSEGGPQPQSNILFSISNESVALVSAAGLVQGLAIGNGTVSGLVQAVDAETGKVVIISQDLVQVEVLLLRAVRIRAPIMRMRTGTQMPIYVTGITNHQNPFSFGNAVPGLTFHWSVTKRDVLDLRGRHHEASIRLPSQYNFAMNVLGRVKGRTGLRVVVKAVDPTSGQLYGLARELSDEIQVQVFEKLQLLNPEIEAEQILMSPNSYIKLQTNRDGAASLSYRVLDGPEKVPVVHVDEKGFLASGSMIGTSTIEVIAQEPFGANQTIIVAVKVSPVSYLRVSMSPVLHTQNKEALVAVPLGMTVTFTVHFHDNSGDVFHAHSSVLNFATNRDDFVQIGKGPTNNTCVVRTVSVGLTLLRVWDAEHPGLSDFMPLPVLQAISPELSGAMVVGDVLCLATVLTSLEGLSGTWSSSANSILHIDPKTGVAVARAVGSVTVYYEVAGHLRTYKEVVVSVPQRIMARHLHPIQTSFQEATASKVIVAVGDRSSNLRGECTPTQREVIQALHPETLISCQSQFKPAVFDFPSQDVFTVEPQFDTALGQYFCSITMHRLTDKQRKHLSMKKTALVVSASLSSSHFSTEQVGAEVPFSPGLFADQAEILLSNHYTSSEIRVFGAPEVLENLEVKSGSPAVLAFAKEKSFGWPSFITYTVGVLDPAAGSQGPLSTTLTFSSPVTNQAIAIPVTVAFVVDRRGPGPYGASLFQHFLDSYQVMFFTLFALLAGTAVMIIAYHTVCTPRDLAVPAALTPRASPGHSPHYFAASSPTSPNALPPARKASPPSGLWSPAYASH
# UniProt P11926: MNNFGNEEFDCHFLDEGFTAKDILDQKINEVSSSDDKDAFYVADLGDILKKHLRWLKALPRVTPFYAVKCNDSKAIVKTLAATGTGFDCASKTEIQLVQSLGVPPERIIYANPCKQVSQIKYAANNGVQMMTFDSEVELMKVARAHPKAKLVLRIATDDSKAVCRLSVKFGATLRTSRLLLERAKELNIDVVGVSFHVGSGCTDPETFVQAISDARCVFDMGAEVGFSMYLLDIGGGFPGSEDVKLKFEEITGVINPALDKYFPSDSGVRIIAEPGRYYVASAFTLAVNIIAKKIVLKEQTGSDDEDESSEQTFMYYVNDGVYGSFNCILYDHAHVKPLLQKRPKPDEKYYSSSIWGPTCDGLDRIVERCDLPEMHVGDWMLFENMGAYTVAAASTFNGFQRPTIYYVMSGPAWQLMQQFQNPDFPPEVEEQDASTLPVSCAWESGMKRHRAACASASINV
# UniProt O95848: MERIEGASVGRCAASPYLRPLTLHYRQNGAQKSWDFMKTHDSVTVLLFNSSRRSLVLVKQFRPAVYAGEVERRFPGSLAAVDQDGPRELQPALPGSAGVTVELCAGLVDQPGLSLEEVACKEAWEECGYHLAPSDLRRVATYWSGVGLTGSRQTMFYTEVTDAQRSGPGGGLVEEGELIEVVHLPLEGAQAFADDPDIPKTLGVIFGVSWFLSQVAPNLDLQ
# UniProt Q86UD1: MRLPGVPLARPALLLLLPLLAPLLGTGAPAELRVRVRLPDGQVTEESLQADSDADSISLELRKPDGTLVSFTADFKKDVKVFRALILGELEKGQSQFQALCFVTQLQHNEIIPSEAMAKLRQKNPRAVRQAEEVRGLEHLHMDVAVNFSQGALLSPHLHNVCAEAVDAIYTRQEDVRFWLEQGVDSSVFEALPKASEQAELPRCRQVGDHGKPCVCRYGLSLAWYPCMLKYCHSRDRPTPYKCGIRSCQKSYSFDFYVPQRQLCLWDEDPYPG
# UniProt P0C025: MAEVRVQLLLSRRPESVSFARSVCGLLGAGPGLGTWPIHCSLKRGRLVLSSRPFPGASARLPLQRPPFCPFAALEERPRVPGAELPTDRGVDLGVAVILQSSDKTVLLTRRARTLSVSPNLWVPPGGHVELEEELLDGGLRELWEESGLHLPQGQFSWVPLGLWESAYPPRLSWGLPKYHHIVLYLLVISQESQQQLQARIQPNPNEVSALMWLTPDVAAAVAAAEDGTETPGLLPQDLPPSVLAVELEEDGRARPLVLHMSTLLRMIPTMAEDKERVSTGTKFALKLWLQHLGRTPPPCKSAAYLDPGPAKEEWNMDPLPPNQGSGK
# This is one part of the list. Residues, ends and D or L forms follow the SMILES beside them. *: point of attachment. Cbz = O=C(OCc1ccccc1)*
# How the values were obtained:
# Assay in all cases: log2 fold change, soluble protein after heating vs DMSO (PISA); higher = thermal stabilisation; K562 cells, 10 uM, 30 min; active = over 0.2 and 3.5 SD of the protein, either way, in both replicates (recomputed)
# [1] = compound: C1COCCN1CCN2C3=CC=CC=C3N=C2NC(=O)C4=CC(=CC=C4)[N+](=O)[O-] [IRAK-1-4 Inhibitor I]
# How it was run: (§1)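 K562 cells at 2×10^6 cells/mL were exposed to 10 μM compound for 30 min, then aliquots were heated for 3 min across 48°C-58°C, pooled, and extracted in PBS containing 0.5% NP-40 at 4°C. The supernatant after 21,000xg for 90 min was taken as soluble protein and measured by TMTpro 16plex LC-MS/MS with channel sums equalised. Thermal stability is reported relative to control samples, with values from duplicates. Fold changes are given on a log2 scale.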
# [2] = compound: C=CC(=O)N1CCC[C@@H](n2nc(-c3ccc(Oc4ccccc4)cc3)c3c(N)ncnc32)C1 [ibrutinib]
# How it was run: as §1
# [3] = compound: CC(=O)c1cnc2ccc(-c3cc(Cl)c(O)c(Cl)c3)nc2c1N[C@H]1CC[C@H](CN(C)C)CC1
# How it was run: as §1
# [4] = compound: CC(C)(C)Cn1c(N)nc2ccc(-c3[nH]c(C(C)(C)C)nc3-c3ccc(F)cc3)nc21 [ralimetinib]
# How it was run: as §1
# [5] = compound: CC(C)(O)CC(=O)NCCn1ccc2ncnc(Nc3ccc(Oc4cccc(C(F)(F)F)c4)c(Cl)c3)c21
# How it was run: as §1
# [6] = compound: CC(C)C1=C2N=C(C=C(N2N=C1)NCC3=CC=CC=C3)NCCCCCCN
# How it was run: as §1
# [7] = compound: CC(C)C[C@@H](C=O)NC(=O)[C@H](CC(C)C)NC(=O)[C@H](CC(C)C)NC(=O)OCc1ccccc1
# How it was run: as §1
# [8] = compound: CC(C)N(C[C@H]1O[C@@H](n2cnc3c(N)ncnc32)[C@H](O)[C@@H]1O)[C@H]1C[C@@H](CCc2nc3cc(C(C)(C)C)ccc3[nH]2)C1 [pinometostat]
# How it was run: as §1
# [9] = compound: CC1=C(C2=C(C=C1)C(=O)C3=CC=CC=C3N2CCCN)C
# How it was run: as §1
# [10] = compound: CC1=C(C=C(C=C1)NC(=O)C2=CC(=CC=C2)C(C)(C)C#N)NC3=CC4=C(C=C3)N=CN(C4=O)C
# How it was run: as §1
# [11] = compound: CC1=C(C=C(C=C1)NC(=O)C2=CC(=CC=C2)N(C)C)NC(=O)C3=CC=C(C=C3)O
# How it was run: as §1
# [12] = compound: CC1=CC=C(C=C1)SC2=C3C=C(SC3=CN=C2)C(=O)N
# How it was run: as §1
# [13] = compound: CC1=NC(=CC=C1)C2=C(N=C(N2)C(C)(C)C)C3=CC4=NC=CN=C4C=C3
# How it was run: as §1
# [14] = compound: CCCCN(Cc1ccc(C(=O)NO)cc1)C(=O)Nc1ccccc1 [Nexturastat A]
# How it was run: as §1
# [15] = compound: CCCS(=O)(=O)Nc1ccc(F)c(C(=O)c2c[nH]c3ncc(-c4ccc(Cl)cc4)cc23)c1F [vemurafenib]
# How it was run: as §1
# [16] = compound: CCCS(=O)(=O)Nc1ccc(F)c(C(=O)c2c[nH]c3ncc(Cl)cc23)c1F
# How it was run: as §1
# [17] = compound: CCCc1cc(C)[nH]c(=O)c1CNC(=O)c1cc(-c2ccnc(N3CCN(C)CC3)c2)cc2c1cnn2C(C)C
# How it was run: as §1
# [18] = compound: CCN(CC)Cc1ccc2cc(COC(=O)Nc3ccc(C(=O)NO)cc3)ccc2c1 [givinostat]
# How it was run: as §1
# [19] = compound: CCN(CCCOc1ccc2c(Nc3cc(CC(=O)Nc4cccc(F)c4)[nH]n3)ncnc2c1)CCOP(=O)(O)O [barasertib]
# How it was run: as §1
# [20] = compound: CC1=C(C(CC(=O)N1)C2=CC=C(C=C2)C(F)(F)F)C(=O)NC3=C(C=C4C(=C3)C=NN4)F
# How it was run: as §1
Target,log2 fold change [1],log2 fold change [2],log2 fold change [3],log2 fold change [4],log2 fold change [5],log2 fold change [6],log2 fold change [7],log2 fold change [8],log2 fold change [9],log2 fold change [10],log2 fold change [11],log2 fold change [12],log2 fold change [13],log2 fold change [14],log2 fold change [15],log2 fold change [16],log2 fold change [17],log2 fold change [18],log2 fold change [19],log2 fold change [20]
OSTC (UniProt Q9NRP0),inactive: -0.002,inactive: -0.013,inactive: -0.022,inactive: 0.004,inactive: -0.055,active: -0.377,inactive: -0.046,inactive: -0.023,inactive: 0.119,inactive: 0.001,inactive: 0.001,inactive: 0.047,inactive: 0.058,inactive: -0.114,inactive: -0.115,inactive: 0.068,inactive: -0.058,inactive: 0.076,inactive: 0.061,–
NUDT7 (UniProt P0C024),inactive: -0.02,inactive: 0.205,–,inactive: -0.52,inactive: -0.467,inactive: 0,inactive: 0.207,inactive: -0.231,inactive: 0.039,inactive: 0.016,inactive: -0.021,–,inactive: 0.197,inactive: 0.014,–,–,–,inactive: 0.017,active: 0.666,–
NUDT21 (UniProt O43809),inactive: -0.057,inactive: 0.014,active: -0.33,inactive: -0.022,inactive: 0.077,inactive: 0.066,inactive: 0.034,inactive: -0.022,active: 0.246,inactive: 0.052,inactive: 0.077,inactive: -0.007,inactive: 0.019,inactive: 0,inactive: 0.02,inactive: -0.053,inactive: -0.013,inactive: -0.033,inactive: -0.023,–
P4HA2 (UniProt O15460),inactive: -0.072,inactive: 0.168,–,inactive: 0.038,inactive: 0.045,inactive: -0.017,inactive: 0.062,inactive: 0.06,inactive: 0,inactive: -0.038,inactive: -0.014,inactive: 0.033,inactive: -0.102,inactive: 0.402,inactive: -0.093,inactive: -0.038,inactive: 0.043,inactive: 0.058,inactive: 0.101,–
ORC3 isoform 2 (UniProt Q9UBD5),inactive: -0.113,inactive: -0.015,inactive: -0.132,inactive: -0.059,inactive: -0.383,inactive: -0.338,inactive: -0.013,inactive: 0.012,inactive: -0.049,inactive: -0.027,inactive: -0.056,inactive: 0.146,inactive: 0.075,inactive: -0.124,inactive: 0.012,inactive: 0.143,inactive: 0.044,inactive: 0.145,inactive: 0.178,–
OCIAD1 (UniProt D6RDK6),inactive: -0.05,inactive: -0.148,inactive: -0.165,inactive: -0.284,inactive: 0.03,inactive: -0.056,inactive: 0.079,inactive: -0.021,inactive: 0.047,inactive: 0.037,inactive: 0.011,inactive: -0.121,inactive: -0.017,inactive: -0.158,inactive: -0.031,inactive: -0.171,inactive: -0.633,inactive: 0.087,inactive: 0.05,–
ORC2 (UniProt Q13416),inactive: 0.094,inactive: -0.066,–,inactive: 0.062,inactive: -0.172,inactive: -0.172,inactive: 0.068,inactive: -0.105,inactive: -0.015,inactive: 0.011,inactive: -0.039,inactive: 0.017,inactive: -0.069,inactive: 0.029,–,inactive: 0.012,inactive: -0.055,inactive: 0.188,inactive: 0.015,inactive: 0.092
OBSCN (UniProt A6NGQ3),inactive: -0.147,inactive: -0.145,inactive: 0.064,inactive: -0.262,–,–,inactive: 0.059,inactive: -0.053,inactive: -0.03,inactive: 0.102,inactive: -0.001,inactive: -0.057,inactive: -0.128,–,–,inactive: -0.088,–,–,inactive: 0.23,inactive: 0.103
NT5C3B (UniProt Q969T7),inactive: 0.03,inactive: 0.055,inactive: -0.022,inactive: -0.015,–,inactive: -0.061,inactive: -0.073,inactive: -0.039,inactive: 0.033,inactive: 0.157,inactive: -0.101,inactive: 0.132,inactive: 0.031,–,inactive: 0.026,inactive: 0.055,inactive: 0.018,inactive: 0.014,inactive: 0.031,inactive: 0.021
OXSR1 (UniProt O95747),inactive: 0.014,inactive: -0.022,active: -0.341,inactive: 0.045,inactive: -0.115,inactive: -0.111,inactive: -0.05,inactive: 0.026,inactive: 0.106,inactive: 0.019,inactive: -0.11,inactive: 0.014,inactive: 0.004,inactive: -0.021,inactive: 0.037,inactive: 0.038,inactive: 0.007,inactive: 0.055,inactive: 0.035,–
NUP205 (UniProt Q92621),inactive: -0.035,inactive: -0.038,inactive: -0.1,inactive: -0.027,inactive: 0.032,inactive: -0.167,inactive: -0.058,inactive: 0,inactive: 0.018,inactive: 0.009,inactive: 0.018,inactive: 0.002,inactive: 0.075,inactive: 0.151,inactive: 0.059,inactive: 0.084,inactive: -0.016,inactive: 0.076,inactive: 0.044,–
NUP210 (UniProt Q8TEM1),inactive: 0.005,inactive: -0.025,inactive: -0.038,inactive: -0.069,inactive: -0.176,active: -0.52,inactive: -0.007,inactive: 0.001,inactive: 0.047,inactive: -0.029,inactive: 0.052,inactive: 0.084,inactive: 0.035,inactive: -0.08,inactive: -0.002,inactive: 0.058,inactive: -0.05,inactive: -0.017,inactive: 0.029,–
ODC1 (UniProt P11926),inactive: -0.137,–,inactive: 0.093,–,–,inactive: -0.049,–,inactive: -0.058,–,–,–,inactive: -0.021,inactive: 0.142,–,–,inactive: -0.031,–,inactive: 0.061,–,inactive: 0.313
NUDT14 (UniProt O95848),–,–,–,–,–,–,–,–,–,–,–,inactive: 0.035,–,–,–,inactive: 0.027,–,–,–,–
P3H3 (UniProt Q8IVL6),–,–,–,–,inactive: -0.022,–,–,–,inactive: -0.149,–,–,–,–,inactive: 0.162,–,–,inactive: 0.13,–,–,–
OAF (UniProt Q86UD1),–,–,–,inactive: -0.041,–,inactive: 0.009,inactive: -0.013,–,–,inactive: -0.005,inactive: -0.119,–,–,–,–,–,inactive: -0.346,inactive: -0.071,–,–
NUDT17 (UniProt P0C025),–,inactive: 0.462,inactive: 0.02,inactive: -0.075,inactive: 0.265,inactive: 0.009,inactive: 0.02,–,inactive: 0.064,inactive: 0.325,inactive: -0.233,–,–,inactive: 0.378,inactive: 0.116,–,inactive: -0.016,inactive: -0.014,inactive: 0.114,inactive: -0.05

# Complete entries, quoted from the list. Order of values: log2 fold change [1]	log2 fold change [2]	log2 fold change [3]	log2 fold change [4]	log2 fold change [5]	log2 fold change [6]	log2 fold change [7]	log2 fold change [8]	log2 fold change [9]	log2 fold change [10]	log2 fold change [11]	log2 fold change [12]	log2 fold change [13]	log2 fold change [14]	log2 fold change [15]	log2 fold change [16]	log2 fold change [17]	log2 fold change [18]	log2 fold change [19]	log2 fold change [20]
# P4HA2 (UniProt O15460) as listed: inactive: -0.072	inactive: 0.168	–	inactive: 0.038	inactive: 0.045	inactive: -0.017	inactive: 0.062	inactive: 0.06	inactive: 0	inactive: -0.038	inactive: -0.014	inactive: 0.033	inactive: -0.102	inactive: 0.402	inactive: -0.093	inactive: -0.038	inactive: 0.043	inactive: 0.058	inactive: 0.101	–
# NUDT17 (UniProt P0C025) as listed: –	inactive: 0.462	inactive: 0.02	inactive: -0.075	inactive: 0.265	inactive: 0.009	inactive: 0.02	–	inactive: 0.064	inactive: 0.325	inactive: -0.233	–	–	inactive: 0.378	inactive: 0.116	–	inactive: -0.016	inactive: -0.014	inactive: 0.114	inactive: -0.05
